Test results from patent publication US20220041718A1 (AUTOLUS, published 2022).
Substitutions are numbered along the chain they refer to. Names may count otherwise. These are yes or no findings as the source states them, for the method shown. Some results given as binding are weak or reduced against the parent protein; the word gives no strength. For part of these data: Sequences can lack the tags named with a protein.

Amino acid sequences for entries named in this document (tags omitted). Residues count along the entry.
UniProt P01850, residues 1-129: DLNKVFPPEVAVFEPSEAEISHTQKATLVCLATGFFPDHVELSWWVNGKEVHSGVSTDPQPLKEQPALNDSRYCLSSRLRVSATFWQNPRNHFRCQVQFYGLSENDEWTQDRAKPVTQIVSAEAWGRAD

B1: anti-TRBC2 scFv (T28K, Y32F, A100N, Y102L, N103M in VH; N35R in VL of hJovi-1) (scFv)
scFv: QVQLVQSGAEVKKPGASVKVSCKASGYKFTGFVMHWVRQAPGQGLEWMGFINPYNDDIQSNERFRGRVTMTRDTSISTAYMELSRLRSDDTAVYYCARGNGLMFDGAYRFFDFWGQGTMVTVSSGGGGSGGGGSGGGGSDIVMTQSPLSLPVTPGEPASISCRSSQRLVHSNGRTYLHWYLQKPGQSPRLLIYRVSNRFPGVPDRFSGSGSGTDFTLKISRVEAEDVGVYYCSQSTHVPYTFGQGTKLEIKR
notes: the format in the assay is unsure
B2: anti-TRBC2 scFv-Fc (T28K, Y32F, A100N, Y102L, N103M in VH; N35R in VL of hJovi-1) (Fc fusion)
chain: QVQLVQSGAEVKKPGASVKVSCKASGYKFTGFVMHWVRQAPGQGLEWMGFINPYNDDIQSNERFRGRVTMTRDTSISTAYMELSRLRSDDTAVYYCARGNGLMFDGAYRFFDFWGQGTMVTVSSGGGGSGGGGSGGGGSDIVMTQSPLSLPVTPGEPASISCRSSQRLVHSNGRTYLHWYLQKPGQSPRLLIYRVSNRFPGVPDRFSGSGSGTDFTLKISRVEAEDVGVYYCSQSTHVPYTFGQGTKLEIKRSDPRGPTIKPCPPCKCPAPNLLGGPSVFIFPPKIKDVLMISLSPIVTCVVVDVSEDDPDVQISWFVNNVEVHTAQTQTHREDYNSTLRVVSALPIQHQDWMSGKEFKCKVNNKDLPAPIERTISKPKGSVRAPQVYVLPPPEEEMTKKQVTLTCMVTDFMPEDIYVEWTNNGKTELNYKNTEPVLDSDGSYFMYSKLRVEKKNWVERNSYSCSVVHEGLHNHHTTKSFSRTPGK
notes: Multivalent format
B3: anti-TRBC2 scFv-COMP (T28K, Y32F, A100N, Y102L, N103M in VH; N35R in VL of hJovi-1) (other)
chain: QVQLVQSGAEVKKPGASVKVSCKASGYKFTGFVMHWVRQAPGQGLEWMGFINPYNDDIQSNERFRGRVTMTRDTSISTAYMELSRLRSDDTAVYYCARGNGLMFDGAYRFFDFWGQGTMVTVSSGGGGSGGGGSGGGGSDIVMTQSPLSLPVTPGEPASISCRSSQRLVHSNGRTYLHWYLQKPGQSPRLLIYRVSNRFPGVPDRFSGSGSGTDFTLKISRVEAEDVGVYYCSQSTHVPYTFGQGTKLEIKRSGGGGSGGGGSGGGGSAGSDLGPQMLRELQETNAALQDVRELLRQQVREITFLKNTVMECDACGSGKKDPKSGGGGSYPYDVPDYA
notes: scFv fused to the COMP coiled-coil
B4: hJovi-1 variant IgG, VH T28K, Y32F, A100N; VL N35K (antibody, V domains shown)
VH: QVQLVQSGAEVKKPGASVKVSCKASGYKFTGFVMHWVRQAPGQGLEWMGFINPYNDDIQSNERFRGRVTMTRDTSISTAYMELSRLRSDDTAVYYCARGNGYNFDGAYRFFDFWGQGTMVTVSS
VL: DIVMTQSPLSLPVTPGEPASISCRSSQRLVHSNGKTYLHWYLQKPGQSPRLLIYRVSNRFPGVPDRFSGSGSGTDFTLKISRVEAEDVGVYYCSQSTHVPYTFGQGTKLEIK
notes: IgG format
B5: hJovi-1 variant IgG, VH T28K, Y32F, A100N; VL N35R (antibody, V domains shown)
VH: B4 VH
VL: B4 VL with K35R
notes: IgG format
B6: hJovi-1 variant IgG, VH T28K, Y32F, R98K, A100N; VL unmutated (antibody, V domains shown)
VH: B4 VH with R98K
VL: B4 VL with K35N
notes: IgG format
B7: hJovi-1 variant IgG, VH T28R, Y32F, A100N; VL unmutated (antibody, V domains shown)
VH: B4 VH with K28R
VL: B4 VL with K35N
notes: IgG format
B8: hJovi-1 variant IgG, VH V2K, T28K, Y32F, A100N; VL unmutated (antibody, V domains shown)
VH: B4 VH with V2K
VL: B4 VL with K35N
notes: IgG format
B9: hJovi-1 variant IgG, VH V2R, T28K, Y32F, A100N; VL unmutated (antibody, V domains shown)
VH: B4 VH with V2R
VL: B4 VL with K35N
notes: IgG format
B10: hJovi-1 variant IgG, VH Y27F, T28K, Y32F, A100N; VL unmutated (antibody, V domains shown)
VH: B4 VH with Y27F
VL: B4 VL with K35N
notes: IgG format
B11: hJovi-1 variant IgG, VH Y27N, T28K, Y32F, A100N; VL unmutated (antibody, V domains shown)
VH: B4 VH with Y27N
VL: B4 VL with K35N
notes: IgG format
B12: hJovi-1 variant IgG, VH Y27W, T28K, Y32F, A100N; VL unmutated (antibody, V domains shown)
VH: B4 VH with Y27W
VL: B4 VL with K35N
notes: IgG format

Experiments:
[1] = molecular target: T1, Recombinant purified TRBC1 (human, UniProt P01850 1-129, limits assumed); experiment: SPR (Biacore T200), captured anti-TRBC2 binder, recombinant TRBC1 as analyte
T1 construct: Construct not described (may be a soluble TCR carrying TRBC1); also called TCR beta constant region 1; soluble recombinant biotinylated TRBC1

[2] = molecular target: Recombinant purified TRBC2 (human); experiment: SPR (Biacore T200), captured anti-TRBC2 binder, recombinant TRBC2 as analyte; concentration not printed on the sheet
[3] = molecular target: Recombinant purified TRBC2 (human); experiment: SPR
[4] = molecular target: Recombinant purified TRBC2 (human); experiment: SPR (Example 6)
[5] = molecular target: T1, Recombinant purified TRBC1; experiment: SPR (Biacore T200), biotinylated TRBC1 captured on a CAP chip, scFv-Fc injected [cont.) B]
[6] = molecular target: Recombinant purified TRBC2 (human); experiment: SPR (Biacore T200), biotinylated TRBC2 captured on a CAP chip, scFv-Fc injected; concentration not printed on the sheet [cont.) B]
[7] = molecular target: Recombinant purified TRBC2 (human); experiment: SPR (Biacore T200), biotinylated TRBC2 captured on a CAP chip, scFv-COMP injected; concentration not printed on the sheet [cont.) C]

Binder | binding [3] | also measured
B1 | – | binding [1]: no binding (tested: concentration not printed on the sheet); binding [2]: binds
B2 | binds | binding [4]: binds; binding [5]: no binding (tested: concentration not printed on the sheet); binding [6]: binds
B3 | binds | binding [4]: binds; binding [7]: binds
B4 | binds | –
B5 | binds | –
B6 | binds | –
B7 | binds | –
B8 | binds | –
B9 | binds | –
B10 | binds | –
B11 | binds | –
B12 | binds | –
